# In the supplement of paper PMC8728848:
# This is one part of the list.
# B1: Protectin (Homo sapiens), P13987 (protein)
# chain: MGIQGGSVLFGLLLVLAVFCHSGHSLQCYNCPNPTADCKTAVNCSSDFDACLITKAGLQVYNKCWKFEHCNFNDVTTRLRENELTYYCCKKDLCNFNEQLENGGTSLSEKTVLLLVTPFLAAAWSLHP
# Legend:
# Experiment in all cases: glycan array binding signal (z-score within array); higher = stronger binding
# Conditions in all cases: glycan notation: IUPAC condensed, linker removed
# Fuc(a1-2)Gal = target: Fuc(a1-2)Gal
# Summary of the method: (§1)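 The binding signal is a Z-score computed within each array and averaged over linkers. Arrays of the same protein sequence at different concentrations or buffers were also averaged together. Data originate from 3228 arrays in the Consortium for Functional Glycomics database, kept only where the protein sequence was available.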
# Fuc(a1-2)Gal(b1-3)GalNAc = target: Fuc(a1-2)Gal(b1-3)GalNAc
# Summary of the method: as §1
# [1] = target: Fuc(a1-2)Gal(b1-3)GalNAc(a1-3)[Fuc(a1-2)]Gal(b1-4)Glc
# Summary of the method: as §1
# [2] = target: Fuc(a1-2)Gal(b1-3)GalNAc(a1-3)[Fuc(a1-2)]Gal(b1-4)GlcNAc
# Summary of the method: as §1
# [3] = target: Fuc(a1-2)Gal(b1-3)GalNAc(b1-3)Gal
# Summary of the method: as §1
# [4] = target: Fuc(a1-2)Gal(b1-3)GalNAc(b1-3)Gal(a1-4)Gal(b1-4)Glc
# Summary of the method: as §1
# [5] = target: Fuc(a1-2)Gal(b1-3)GalNAc(b1-4)[Neu5Ac(a2-3)]Gal(b1-4)Glc
# Summary of the method: as §1
# Fuc(a1-2)Gal(b1-3)GlcNAc = target: Fuc(a1-2)Gal(b1-3)GlcNAc
# Summary of the method: as §1
# [6] = target: Fuc(a1-2)Gal(b1-3)GlcNAc(b1-2)Man(a1-3)[Fuc(a1-2)Gal(b1-3)GlcNAc(b1-2)Man(a1-6)]Man(b1-4)GlcNAc(b1-4)GlcNAc
# Summary of the method: as §1
# [7] = target: Fuc(a1-2)Gal(b1-3)GlcNAc(b1-2)Man(a1-3)[Fuc(a1-2)Gal(b1-3)GlcNAc(b1-2)Man(a1-6)]Man(b1-4)GlcNAc(b1-4)[Fuc(a1-6)]GlcNAc
# Summary of the method: as §1
# [8] = target: Fuc(a1-2)Gal(b1-3)GlcNAc(b1-3)Gal(b1-4)Glc
# Summary of the method: as §1
# [9] = target: Fuc(a1-2)Gal(b1-3)GlcNAc(b1-3)GalNAc
# Summary of the method: as §1
# [10] = target: Fuc(a1-2)Gal(b1-3)GlcNAc(b1-3)[Fuc(a1-3)[Gal(b1-4)]GlcNAc(b1-6)]Gal(b1-4)Glc
# Summary of the method: as §1
# [11] = target: Fuc(a1-2)Gal(b1-3)GlcNAc(b1-3)[Gal(b1-4)GlcNAc(b1-6)]Gal(b1-4)Glc
# Summary of the method: as §1
# [12] = target: Fuc(a1-2)Gal(b1-3)GlcNAc(b1-3)[Neu5Ac(a2-6)Gal(b1-4)GlcNAc(b1-6)]Gal(b1-4)Glc
# Summary of the method: as §1
# [13] = target: Fuc(a1-2)Gal(b1-3)[Fuc(a1-4)]GlcNAc
# Summary of the method: as §1
# [14] = target: Fuc(a1-2)Gal(b1-3)[Fuc(a1-4)]GlcNAc(b1-2)Man(a1-3)[Fuc(a1-2)Gal(b1-3)[Fuc(a1-4)]GlcNAc(b1-2)Man(a1-6)]Man(b1-4)GlcNAc(b1-4)GlcNAc
# Summary of the method: as §1
# [15] = target: Fuc(a1-2)Gal(b1-3)[Fuc(a1-4)]GlcNAc(b1-3)[Fuc(a1-3)[Gal(b1-4)]GlcNAc(b1-6)]Gal(b1-4)Glc
# Summary of the method: as §1
# [16] = target: Fuc(a1-2)Gal(b1-3)[Fuc(a1-4)]GlcNAc(b1-3)[Gal(b1-4)GlcNAc(b1-6)]Gal(b1-4)Glc
# Summary of the method: as §1
# Fuc(a1-2)Gal(b1-4)Glc = target: Fuc(a1-2)Gal(b1-4)Glc
# Summary of the method: as §1
# Fuc(a1-2)Gal(b1-4)Glc6S = target: Fuc(a1-2)Gal(b1-4)Glc6S
# Summary of the method: as §1
# Fuc(a1-2)Gal(b1-4)GlcNAc = target: Fuc(a1-2)Gal(b1-4)GlcNAc
# Summary of the method: as §1
# [17] = target: Fuc(a1-2)Gal(b1-4)GlcNAc(b1-2)Man(a1-3)[Fuc(a1-2)Gal(b1-4)GlcNAc(b1-2)Man(a1-6)]Man(b1-4)GlcNAc(b1-4)GlcNAc
# Summary of the method: as §1
# [18] = target: Fuc(a1-2)Gal(b1-4)GlcNAc(b1-2)Man(a1-3)[Fuc(a1-2)Gal(b1-4)GlcNAc(b1-2)Man(a1-6)]Man(b1-4)GlcNAc(b1-4)[Fuc(a1-6)]GlcNAc
# Summary of the method: as §1
# [19] = target: Fuc(a1-2)Gal(b1-4)GlcNAc(b1-2)[Fuc(a1-2)Gal(b1-4)GlcNAc(b1-4)]Man(a1-3)[Fuc(a1-2)Gal(b1-4)GlcNAc(b1-2)Man(a1-6)]Man(b1-4)GlcNAc(b1-4)GlcNAc
# Summary of the method: as §1
# [20] = target: Fuc(a1-2)Gal(b1-4)GlcNAc(b1-3)Gal(b1-4)GlcNAc
# Summary of the method: as §1
# [21] = target: Fuc(a1-2)Gal(b1-4)GlcNAc(b1-3)Gal(b1-4)GlcNAc(b1-3)Gal(b1-4)GlcNAc
# Summary of the method: as §1
# [22] = target: Fuc(a1-2)Gal(b1-4)GlcNAc(b1-3)GalNAc
# Summary of the method: as §1
# [23] = target: Fuc(a1-2)Gal(b1-4)GlcNAc(b1-3)[Fuc(a1-2)Gal(b1-4)GlcNAc(b1-6)]GalNAc
# Summary of the method: as §1
# [24] = target: Fuc(a1-2)Gal(b1-4)GlcNAc6S
# Summary of the method: as §1
# [25] = target: Fuc(a1-2)Gal(b1-4)[Fuc(a1-3)]GlcNAc
# Summary of the method: as §1
# [26] = target: Fuc(a1-2)Gal(b1-4)[Fuc(a1-3)]GlcNAc(b1-2)Man(a1-3)[Fuc(a1-2)Gal(b1-4)[Fuc(a1-3)]GlcNAc(b1-2)Man(a1-6)]Man(b1-4)GlcNAc(b1-4)GlcNAc
# Summary of the method: as §1
# [27] = target: Fuc(a1-2)Gal(b1-4)[Fuc(a1-3)]GlcNAc(b1-2)[Fuc(a1-2)Gal(b1-4)[Fuc(a1-3)]GlcNAc(b1-4)]Man(a1-3)[Fuc(a1-2)Gal(b1-4)[Fuc(a1-3)]GlcNAc(b1-2)Man(a1-6)]Man(b1-4)GlcNAc(b1-4)GlcNAc
# Summary of the method: as §1
# [28] = target: Fuc(a1-2)Gal(b1-4)[Fuc(a1-3)]GlcNAc(b1-3)Gal(b1-4)[Fuc(a1-3)]GlcNAc
# Summary of the method: as §1
# [29] = target: Fuc(a1-2)Gal(b1-4)[Fuc(a1-3)]GlcNAc(b1-3)Gal(b1-4)[Fuc(a1-3)]GlcNAc(b1-3)Gal(b1-4)[Fuc(a1-3)]GlcNAc
# Summary of the method: as §1
# [30] = target: Fuc(a1-2)Gal(b1-4)[Fuc(a1-3)]GlcNAc(b1-3)GalNAc
# Summary of the method: as §1
# Fuc(a1-2)Gal6S(b1-4)Glc = target: Fuc(a1-2)Gal6S(b1-4)Glc
# Summary of the method: as §1
# [31] = target: Fuc(a1-2)Gal6S(b1-4)Glc6S
# Summary of the method: as §1
# [32] = target: Fuc(a1-2)Gal6S(b1-4)GlcNAc
# Summary of the method: as §1
# Fuc(a1-2)[Gal(a1-3)]Gal = target: Fuc(a1-2)[Gal(a1-3)]Gal
# Summary of the method: as §1
# [33] = target: Fuc(a1-2)[Gal(a1-3)]Gal(b1-3)GalNAc
# Summary of the method: as §1
# [34] = target: Fuc(a1-2)[Gal(a1-3)]Gal(b1-3)GlcNAc
# Summary of the method: as §1
# [35] = target: Fuc(a1-2)[Gal(a1-3)]Gal(b1-3)GlcNAc(b1-2)Man(a1-3)[Fuc(a1-2)[Gal(a1-3)]Gal(b1-3)GlcNAc(b1-2)Man(a1-6)]Man(b1-4)GlcNAc(b1-4)GlcNAc
# Summary of the method: as §1
# [36] = target: Fuc(a1-2)[Gal(a1-3)]Gal(b1-3)GlcNAc(b1-2)Man(a1-3)[Fuc(a1-2)[Gal(a1-3)]Gal(b1-3)GlcNAc(b1-2)Man(a1-6)]Man(b1-4)GlcNAc(b1-4)[Fuc(a1-6)]GlcNAc
# Summary of the method: as §1
# [37] = target: Fuc(a1-2)[Gal(a1-3)]Gal(b1-3)GlcNAc(b1-3)GalNAc
# Summary of the method: as §1
binder,measurement,setting,value
B1,glycan array binding signal (z-score),Fuc(a1-2)Gal,-0.701
same,glycan array binding signal (z-score),Fuc(a1-2)Gal(b1-3)GalNAc,-0.055
same,glycan array binding signal (z-score),[1],-0.849
same,glycan array binding signal (z-score),[2],-0.179
same,glycan array binding signal (z-score),[3],0.099
same,glycan array binding signal (z-score),[4],0.113
same,glycan array binding signal (z-score),[5],0.035
same,glycan array binding signal (z-score),Fuc(a1-2)Gal(b1-3)GlcNAc,-0.579
same,glycan array binding signal (z-score),[6],2.12
same,glycan array binding signal (z-score),[7],-0.158
same,glycan array binding signal (z-score),[8],-0.616
same,glycan array binding signal (z-score),[9],-1.15
same,glycan array binding signal (z-score),[10],1.82
same,glycan array binding signal (z-score),[11],-0.84
same,glycan array binding signal (z-score),[12],-0.347
same,glycan array binding signal (z-score),[13],-0.358
same,glycan array binding signal (z-score),[14],3.68
same,glycan array binding signal (z-score),[15],-1.32
same,glycan array binding signal (z-score),[16],-0.784
same,glycan array binding signal (z-score),Fuc(a1-2)Gal(b1-4)Glc,0.462
same,glycan array binding signal (z-score),Fuc(a1-2)Gal(b1-4)Glc6S,0.64
same,glycan array binding signal (z-score),Fuc(a1-2)Gal(b1-4)GlcNAc,0.888
same,glycan array binding signal (z-score),[17],1.05
same,glycan array binding signal (z-score),[18],0.22
same,glycan array binding signal (z-score),[19],0.188
same,glycan array binding signal (z-score),[20],-0.276
same,glycan array binding signal (z-score),[21],-0.229
same,glycan array binding signal (z-score),[22],0.183
same,glycan array binding signal (z-score),[23],2.31
same,glycan array binding signal (z-score),[24],-0.083
same,glycan array binding signal (z-score),[25],-0.012
same,glycan array binding signal (z-score),[26],0.562
same,glycan array binding signal (z-score),[27],2.73
same,glycan array binding signal (z-score),[28],-0.347
same,glycan array binding signal (z-score),[29],-0.213
same,glycan array binding signal (z-score),[30],3.6
same,glycan array binding signal (z-score),Fuc(a1-2)Gal6S(b1-4)Glc,0.867
same,glycan array binding signal (z-score),[31],-0.108
same,glycan array binding signal (z-score),[32],-0.573
same,glycan array binding signal (z-score),Fuc(a1-2)[Gal(a1-3)]Gal,-0.623
same,glycan array binding signal (z-score),[33],0.783
same,glycan array binding signal (z-score),[34],-0.496
same,glycan array binding signal (z-score),[35],0.146
same,glycan array binding signal (z-score),[36],-0.311
same,glycan array binding signal (z-score),[37],0.172

# Part of the list above, as tab-separated lines:
binder	measurement	setting	value
B1	glycan array binding signal (z-score)	[1]	-0.849
same	glycan array binding signal (z-score)	[4]	0.113
same	glycan array binding signal (z-score)	[10]	1.82
same	glycan array binding signal (z-score)	[24]	-0.083
